Experimental data as given in PubChem BioAssay AID248 (DTP/NCI, 2004).
The list does not hold the whole screen: it gathers tests that were run many times, whatever their T/C, doses with no T/C, and many T/C values between a quarter and a half above the control. Further doses and runs are listed elsewhere. T/C gives the treated animals as a percentage of the vehicle group. Some entries give survivors of the animals treated and no T/C: the source files T/C as zero there, which appears to mark a toxic dose or a test without result, not a measured value. Some survivor counts are full or nearly so, which does not show that the dose was tolerated: survival well below the control is almost never listed, so the zero probably covers shortened survival too. Survivors were counted at the toxicity check, usually on the fifth day, unless a day is given; later deaths do not show. Schedule codes are those of the source, taken here to give the interval after Q, in days (D) or hours (H), and the number of doses after X. Some entries were tested several times; the values are given in rising order. Some schedules carry Z or #; the key to these is not given. For survival time, the PubChem record calls one and a half times the control and up active, and a quarter to a half above the control has no call in these data; cut-offs in other NCI protocols can differ.

Test system: L1210 leukemia ip in BDF1 mice, survival T/C
Assay: NCI In Vivo Anticancer Drug Screen. Data for tumor model L1210 Leukemia (intraperitoneal) in B6D2F1 (BDF1) mice
Details: higher T/C = longer survival
[1] = T/C endpoint: mean survival time, dose: 30.0 mg/kg/injection, schedule: Q01DX Z (ip), vehicle: methylcellulose (MC)
[2] = T/C endpoint: mean survival time, dose: 100.0 mg/kg/injection, schedule: Q04DX003 (ip), vehicle: saline
[3] = T/C endpoint: mean survival time, dose: 200.0 mg/kg/injection, schedule: Q04DX003 (ip), vehicle: saline
[4] = T/C endpoint: mean survival time, dose: 400.0 mg/kg/injection, schedule: Q04DX003 (ip), vehicle: saline
[5] = T/C endpoint: mean survival time, dose: 200.0 mg/kg/injection, schedule: Q01DX009 (ip), vehicle: Klucel (hydroxypropylcellulose) (HPC)
[6] = T/C endpoint: mean survival time, dose: 12.5 mg/kg/injection, schedule: Q01DX009 (ip), vehicle: Klucel (hydroxypropylcellulose) (HPC)
[7] = T/C endpoint: mean survival time, dose: 400.0 mg/kg/injection, schedule: Q01DX009 (ip), vehicle: Klucel (hydroxypropylcellulose) (HPC)
[8] = T/C endpoint: mean survival time, dose: 400.0 mg/kg/injection, schedule: Q01DX001 (ip), vehicle: carboxymethylcellulose (CMC)
[9] = T/C endpoint: mean survival time, dose: 100.0 mg/kg/injection, schedule: Q04DX003 (ip), vehicle: Klucel (hydroxypropylcellulose) (HPC)
[10] = T/C endpoint: mean survival time, dose: 200.0 mg/kg/injection, schedule: Q04DX003 (ip), vehicle: Klucel (hydroxypropylcellulose) (HPC)
[11] = T/C endpoint: mean survival time, dose: 400.0 mg/kg/injection, schedule: Q04DX003 (ip), vehicle: Klucel (hydroxypropylcellulose) (HPC)
[12] = T/C endpoint: mean survival time, dose: 100.0 mg/kg/injection, schedule: Q01DX009 (ip), vehicle: saline
[13] = T/C endpoint: mean survival time, dose: 100.0 mg/kg/injection, schedule: Q04DX002 (ip), vehicle: saline
[14] = T/C endpoint: mean survival time, dose: 200.0 mg/kg/injection, schedule: Q01DX001 (ip), vehicle: saline
[15] = T/C endpoint: mean survival time, dose: 200.0 mg/kg/injection, schedule: Q04DX002 (ip), vehicle: saline
[16] = T/C endpoint: mean survival time, dose: 400.0 mg/kg/injection, schedule: Q01DX001 (ip), vehicle: saline
[17] = T/C endpoint: mean survival time, dose: 400.0 mg/kg/injection, schedule: Q04DX002 (ip), vehicle: saline

Compound: NC(N)=N/N=C(/C(=N\N=C(N)N)c1ccco1)c1ccco1
- survivor count [1]: 0 of 6
- survivor count (T/C endpoint: mean survival time, dose: 60.0 mg/kg/injection, schedule: Q01DX Z (ip), vehicle: methylcellulose (MC)): 0 of 6
- survivor count (T/C endpoint: mean survival time, dose: 60.0 mg/kg/injection, schedule: Q01DX Z (oral), vehicle: methylcellulose (MC)): 0 of 6
- survivor count (T/C endpoint: mean survival time, dose: 120.0 mg/kg/injection, schedule: Q01DX Z (ip), vehicle: methylcellulose (MC)): 0 of 6

Compound: COC(=O)C(Br)c1ccc([N+](=O)[O-])cc1 (stereo unspecified)
- survivor count (T/C endpoint: mean survival time, dose: 50.0 mg/kg/injection, schedule: Q01DX009 (ip), vehicle: saline with Tween-80): 2 of 6
- survivor count [2]: 5 of 6
- survivor count [3]: 0 of 6
- survivor count [4]: 0 of 6

Compound: O=c1ccsc2ccccc12
- survivor count (T/C endpoint: mean survival time, dose: 200.0 mg/kg/injection, schedule: Q01DX001 (ip), vehicle: saline with Tween-80): 0 of 3
- survivor count (T/C endpoint: mean survival time, dose: 400.0 mg/kg/injection, schedule: Q01DX001 (ip), vehicle: saline with Tween-80): 0 of 3

Compound: O=C(O)c1ccc(NC(=O)c2ccc(C(=O)Nc3ccc(C(=O)O)cc3)cc2)cc1
- survivor count [1]: 4 of 6

Compound: CC1CN=C(c2ccc(NC(=O)c3ccc(C(=O)Nc4ccc(C5=NCC(C)CN5)cc4)nc3)cc2)NC1 (stereo unspecified)
- T/C (T/C endpoint: mean survival time, dose: 2.0 mg/kg/injection, schedule: Q01DX015 (ip), vehicle: water): 147 % of control
- survivor count (T/C endpoint: mean survival time, dose: 8.0 mg/kg/injection, schedule: Q01DX015 (ip), vehicle: water): 3 of 6
- survivor count (T/C endpoint: mean survival time, dose: 10.0 mg/kg/injection, schedule: Q01DX015 (ip), vehicle: water): 2 of 6
- survivor count (T/C endpoint: mean survival time, dose: 16.0 mg/kg/injection, schedule: Q01DX015 (ip), vehicle: water): 0 of 6
- survivor count (T/C endpoint: mean survival time, dose: 20.0 mg/kg/injection, schedule: Q01DX015 (ip), vehicle: water): 0 of 6
- survivor count (T/C endpoint: mean survival time, dose: 31.0 mg/kg/injection, schedule: Q01DX015 (ip), vehicle: water): 0 of 6
- survivor count (T/C endpoint: mean survival time, dose: 40.0 mg/kg/injection, schedule: Q01DX015 (ip), vehicle: water): 0 of 6
- survivor count (T/C endpoint: mean survival time, dose: 62.0 mg/kg/injection, schedule: Q01DX015 (ip), vehicle: water): 0 of 6
- survivor count (T/C endpoint: mean survival time, dose: 125.0 mg/kg/injection, schedule: Q01DX015 (ip), vehicle: water): 0 of 6
- survivor count (T/C endpoint: mean survival time, dose: 250.0 mg/kg/injection, schedule: Q01DX015 (ip), vehicle: water): 0 of 6

Compound: O=S(=O)(O)CCN1CCOCC1
- survivor count [5]: 3 of 6

Compound: C1CCC(C2CCCC[N-]2)[N-]C1.[Cl][Cu][Cl] (stereo unspecified)
- survivor count [6]: 4 of 6
- survivor count (T/C endpoint: mean survival time, dose: 25.0 mg/kg/injection, schedule: Q01DX009 (ip), vehicle: Klucel (hydroxypropylcellulose) (HPC)): 0 of 6
- survivor count (T/C endpoint: mean survival time, dose: 50.0 mg/kg/injection, schedule: Q01DX009 (ip), vehicle: Klucel (hydroxypropylcellulose) (HPC)): 0 of 6
- survivor count (T/C endpoint: mean survival time, dose: 100.0 mg/kg/injection, schedule: Q01DX009 (ip), vehicle: Klucel (hydroxypropylcellulose) (HPC)): 0 of 6
- survivor count [5]: 0 of 6
- survivor count [7]: 0 of 6

Compound: COc1cc(N(CCO)CCO)ccc1NC(=O)c1ccccc1
- survivor count (T/C endpoint: mean survival time, dose: 50.0 mg/kg/injection, schedule: Q01DX001 (ip), vehicle: carboxymethylcellulose (CMC)): 2 of 4
- survivor count (T/C endpoint: mean survival time, dose: 100.0 mg/kg/injection, schedule: Q01DX001 (ip), vehicle: carboxymethylcellulose (CMC)): 0 of 6
- survivor count (T/C endpoint: mean survival time, dose: 200.0 mg/kg/injection, schedule: Q01DX001 (ip), vehicle: carboxymethylcellulose (CMC)): 0 of 6
- survivor count [8]: 0 of 6

Compound: O=c1n[n+]([O-])ccn1C1OC(CO)C(O)C1O (stereo unspecified)
- T/C (T/C endpoint: mean survival time, dose: 300.0 mg/kg/injection, schedule: Q01DX009 (ip), vehicle: saline): 142 % of control
- T/C (T/C endpoint: mean survival time, dose: 450.0 mg/kg/injection, schedule: Q01DX009 (ip), vehicle: saline): 128 % of control
- survivor count (T/C endpoint: mean survival time, dose: 600.0 mg/kg/injection, schedule: Q01DX009 (ip), vehicle: saline): 10 of 10
- survivor count (T/C endpoint: median survival time, dose: 500.0 mg/kg/injection, schedule: Q01DX009 (ip), vehicle: saline): 7 of 10

Compound: CN1CN(c2ccccc2)C2(CCN(CCCCCCC#N)CC2)C1=O
- survivor count [9]: 2 of 6 and 6 of 6

Compound: Cc1ccc2ccccc2c1OC(C)C(=O)O (stereo unspecified)
- survivor count (T/C endpoint: mean survival time, dose: 400.0 mg/kg/injection, schedule: Q04DX003 (ip), vehicle: alcohol): 4 of 6

Compound: CCN(CC)c1ccc(NC(C)=O)cc1
- survivor count (T/C endpoint: mean survival time, dose: 50.0 mg/kg/injection, schedule: Q04DX003 (ip), vehicle: Klucel (hydroxypropylcellulose) (HPC)): 3 of 6
- survivor count [9]: 0 of 6
- survivor count [10]: 0 of 6
- survivor count [11]: 0 of 6

Compound: Cc1cc(=O)oc2c(OS(C)(=O)=O)c(OS(C)(=O)=O)ccc12
- survivor count [6]: 3 of 3

Compound: O=C1c2ccccc2C(=O)c2c3c(cc(NCCNCCO)c21)N(CCO)CCN3
- T/C (T/C endpoint: mean survival time, dose: 12.5 mg/kg/injection, schedule: Q01DX009 (ip), vehicle: DMSO): 130 % of control
- T/C (T/C endpoint: mean survival time, dose: 100.0 mg/kg/injection, schedule: Q01DX009 (ip), vehicle: DMSO): 125 % of control
- survivor count (T/C endpoint: mean survival time, dose: 400.0 mg/kg/injection, schedule: Q01DX009 (ip), vehicle: DMSO): 3 of 6

Compound: COc1ccc(OC)c(OC)c1CC(C)N (stereo unspecified)
- survivor count [12]: 0 of 3

Compound: CCC1C(=O)CCN(C)C1c1cc2ccccc2[nH]1 (stereo unspecified)
- survivor count [8]: 1 of 6

Compound: C#CC[N+](CC)(CC)CC
- survivor count [12]: 5 of 6 and 3 of 3
- T/C [13]: 95, 97, 103, 107 % of control
- survivor count [14]: 1 of 6
- survivor count [15]: 0 of 6 and 1 of 3
- survivor count [16]: 1 of 6
- survivor count [17]: 0 of 3 and 0 of 6

Compound: CC(C)(C)C(=O)CC(=O)C(C)(C)C.CC(C)(C)C(=O)CC(=O)C(C)(C)C.[Zn]
- survivor count (T/C endpoint: mean survival time, dose: 400.0 mg/kg/injection, schedule: Q04DX003 (ip), vehicle: saline with Tween-80): 1 of 6

Compound: CCCC[n+]1ccccc1Cc1ccccc1
- survivor count (T/C endpoint: mean survival time, dose: 25.0 mg/kg/injection, schedule: Q04DX003 (ip), vehicle: saline): 3 of 3
- survivor count [2]: 0 of 3
- survivor count [3]: 0 of 3
- survivor count [4]: 0 of 3

Compound: COc1ccccc1OCCOCCN(C)C1CC(C)CCC1C(C)C (stereo unspecified)
- survivor count [10]: 5 of 6
- survivor count [11]: 0 of 6

Compound: O=C(O)C(Cl)Cl
- survivor count (T/C endpoint: mean survival time, dose: 25.0 mg/kg/injection, schedule: Q01DX009 (ip), vehicle: saline): 6 of 6
- survivor count (T/C endpoint: mean survival time, dose: 50.0 mg/kg/injection, schedule: Q01DX009 (ip), vehicle: saline): 6 of 6
- survivor count [12]: 5 of 6
- survivor count [4]: 4 of 6

Compound: O=C1NC2C3CCC(C3)C12 (stereo unspecified)
- survivor count [13]: 0 of 3
- survivor count [15]: 0 of 3
- survivor count [17]: 0 of 3

Compound: OCCNc1nc2ccccc2c2ccccc12
- survivor count (T/C endpoint: mean survival time, dose: 300.0 mg/kg/injection, schedule: Q01DX001 (ip), vehicle: carboxymethylcellulose (CMC)): 2 of 6

Compound: Clc1ccc(NC2=NCCCS2)c2ccccc12
- survivor count [5]: 0 of 6
- survivor count [7]: 0 of 6
- survivor count [11]: 1 of 6

Compound: CCc1ccc(N2C(N)=NC(N)=NC2(C)C)cc1
- survivor count [14]: 1 of 6
- survivor count [16]: 1 of 6

Compound: CCOC(=O)Nc1cc(Cl)c2n[nH]nc2n1
- survivor count (T/C endpoint: mean survival time, dose: 200.0 mg/kg/injection, schedule: Q01DX005 (ip), vehicle: saline): 2 of 4
- survivor count (T/C endpoint: mean survival time, dose: 400.0 mg/kg/injection, schedule: Q01DX005 (ip), vehicle: saline): 0 of 4
